We go through two substances from PMC10937267.

The target of assay [1] is T1, Keratin 80 (human (endogenous in A549)) (UniProt Q6KB66).
T1 sequence: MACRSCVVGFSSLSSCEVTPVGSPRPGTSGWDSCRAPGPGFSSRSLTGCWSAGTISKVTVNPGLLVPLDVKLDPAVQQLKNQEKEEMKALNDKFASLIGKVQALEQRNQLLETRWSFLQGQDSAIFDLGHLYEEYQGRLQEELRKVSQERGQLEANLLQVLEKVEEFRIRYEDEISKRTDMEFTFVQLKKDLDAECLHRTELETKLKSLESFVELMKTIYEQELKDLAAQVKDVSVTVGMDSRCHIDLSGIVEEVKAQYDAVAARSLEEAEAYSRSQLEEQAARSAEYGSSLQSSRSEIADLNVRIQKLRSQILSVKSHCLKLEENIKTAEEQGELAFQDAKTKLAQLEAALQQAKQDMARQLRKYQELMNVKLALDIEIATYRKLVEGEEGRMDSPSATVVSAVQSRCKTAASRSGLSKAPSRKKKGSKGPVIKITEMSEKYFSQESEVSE
Kind of assay: co-IP; endogenous proteins in A549 lysate; primary antibody overnight, protein A/G magnetic beads 2 hours, Western blot.

Assay [2] deals with T2, KRT80 (human)-3×HA (human) (UniProt Q6KB66).
T2 sequence: T1 sequence
The assay can be described thus: co-IP; reciprocal, exogenous KRT80-3×HA and VCP-3×Myc co-transfected in 293T cells; primary antibody overnight, protein A/G magnetic beads 2 hours, Western blot.

No constants are given. Whether binding was seen depends on the method and setting. In cells and extracts the contact can be indirect. Some results given as binding are weak or reduced against the parent protein; the word gives no strength. For some assays here: Where a sequence is shown, tags or fusion partners need not be part of it.

Take “Valosin-containing protein (from UniProt P55072 1-806)”: the binding entry in assay [1] is recorded as “binds”.

Take “VCP (human)-3×Myc (from UniProt P55072 1-806)”: in assay [2], the binding entry was “binds”.
